These results are taken from article PMC9024448.

Amino acid sequences for entries named in this document (tags omitted).
UniProt Q61831: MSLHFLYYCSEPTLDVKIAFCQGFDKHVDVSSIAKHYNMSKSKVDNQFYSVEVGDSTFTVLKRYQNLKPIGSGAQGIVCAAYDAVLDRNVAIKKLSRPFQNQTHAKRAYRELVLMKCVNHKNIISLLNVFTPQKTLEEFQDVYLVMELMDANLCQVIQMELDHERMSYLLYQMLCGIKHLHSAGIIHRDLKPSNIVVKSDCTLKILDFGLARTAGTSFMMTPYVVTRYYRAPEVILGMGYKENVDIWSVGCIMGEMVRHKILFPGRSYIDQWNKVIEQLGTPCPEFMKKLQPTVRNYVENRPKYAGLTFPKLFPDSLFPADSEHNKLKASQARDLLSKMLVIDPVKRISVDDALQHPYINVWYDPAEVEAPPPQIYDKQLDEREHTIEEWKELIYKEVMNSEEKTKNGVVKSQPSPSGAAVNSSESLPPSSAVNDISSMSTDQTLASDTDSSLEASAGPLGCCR
UniProt Q91YI4: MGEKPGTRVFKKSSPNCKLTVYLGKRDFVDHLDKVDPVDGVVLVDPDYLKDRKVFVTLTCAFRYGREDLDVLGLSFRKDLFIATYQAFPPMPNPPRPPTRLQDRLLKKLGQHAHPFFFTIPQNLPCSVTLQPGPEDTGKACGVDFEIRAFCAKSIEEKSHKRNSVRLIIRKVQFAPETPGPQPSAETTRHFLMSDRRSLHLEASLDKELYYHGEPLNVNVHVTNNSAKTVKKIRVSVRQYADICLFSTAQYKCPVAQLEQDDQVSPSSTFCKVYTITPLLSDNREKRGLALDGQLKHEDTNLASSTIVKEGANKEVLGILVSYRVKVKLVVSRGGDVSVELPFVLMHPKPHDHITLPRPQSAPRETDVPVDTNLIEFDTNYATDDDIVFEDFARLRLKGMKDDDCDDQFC

Test [1] has as its target T1, JIP1 (mouse (endogenous in murine hippocampal primary neurons and mouse brain)) (UniProt Q9WVI9).
T1 sequence: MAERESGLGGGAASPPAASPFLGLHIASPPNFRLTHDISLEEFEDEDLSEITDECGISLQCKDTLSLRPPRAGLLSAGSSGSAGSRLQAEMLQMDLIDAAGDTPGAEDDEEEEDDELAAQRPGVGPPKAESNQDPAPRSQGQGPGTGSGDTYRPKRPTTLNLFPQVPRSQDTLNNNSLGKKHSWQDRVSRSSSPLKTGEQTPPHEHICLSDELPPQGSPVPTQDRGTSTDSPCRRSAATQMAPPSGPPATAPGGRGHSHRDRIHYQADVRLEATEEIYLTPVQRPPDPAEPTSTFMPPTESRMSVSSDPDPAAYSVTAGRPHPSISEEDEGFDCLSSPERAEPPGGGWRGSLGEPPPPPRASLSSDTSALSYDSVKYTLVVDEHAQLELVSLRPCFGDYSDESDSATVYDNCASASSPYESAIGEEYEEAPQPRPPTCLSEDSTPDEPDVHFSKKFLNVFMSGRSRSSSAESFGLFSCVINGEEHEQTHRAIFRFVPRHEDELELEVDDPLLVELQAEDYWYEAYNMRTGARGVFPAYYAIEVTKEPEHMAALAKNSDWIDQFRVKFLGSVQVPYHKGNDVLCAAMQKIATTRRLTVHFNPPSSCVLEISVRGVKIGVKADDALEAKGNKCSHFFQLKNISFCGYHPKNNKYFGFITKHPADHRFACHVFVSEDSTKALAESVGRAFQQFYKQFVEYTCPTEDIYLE
Description: co-IP; Triton-insoluble fraction (TIF, postsynaptic protein-enriched) of mouse brain in PBS and 0.5% Triton X-100 (300 μg), 1 μg antibody (anti-JIP1, anti-PSD95, anti-JNK3 or anti-β-arrestin2) overnight at 4 °C, beads 1 h at 4 °C, five washes with PBS and 0.5% Triton, Western blot; IgG as control.

The target of test [2] is c-Jun N-terminal kinase 3 (JNK3) (mouse (endogenous in murine hippocampal primary neurons and mouse brain)) (UniProt Q61831). Description: co-IP; murine whole-brain (total brain) homogenate in PBS and 1% Triton X (300 μg), 1 μg antibody overnight at 4 °C, beads 1 h at 4 °C, five washes with PBS and 0.5% Triton, Western blot; baits not told in the text (Supplemental Figure S1).

Test [3] shares this target. Description: co-IP; protein extracts of cultured murine hippocampal primary neurons (300 μg), 1 μg antibody (anti-PSD95 or anti-JNK3) overnight at 4 °C, Dyna beads or protein A/G agarose 1 h at 4 °C, five washes with PBS and 0.5% Triton, Western blot; IgG as control.
For test [4] the target is unchanged. Description: co-IP; Triton-insoluble fraction (TIF, postsynaptic protein-enriched) of mouse brain in PBS and 0.5% Triton X-100 (300 μg), 1 μg antibody (anti-JIP1, anti-PSD95, anti-JNK3 or anti-β-arrestin2) overnight at 4 °C, beads 1 h at 4 °C, five washes with PBS and 0.5% Triton, Western blot; IgG as control.

These are yes or no findings as the source states them, for the method shown. Binding seen in cells or lysates may run through a third protein. Some entries that bind do so weakly or less than the wild type.

Consider “c-Jun N-terminal kinase 3 (JNK3) (from UniProt Q61831 1-464) (enzyme)”, for which the binding result in test [1] is “binds”.

Turning to β-arrestin2 (from UniProt Q91YI4 1-410), the binding result in test [2], in test [3] and in test [4] was “binds” throughout.

B1: JIP1 (protein, UniProt Q9WVI9 1-707)
chain: MAERESGLGGGAASPPAASPFLGLHIASPPNFRLTHDISLEEFEDEDLSEITDECGISLQCKDTLSLRPPRAGLLSAGSSGSAGSRLQAEMLQMDLIDAAGDTPGAEDDEEEEDDELAAQRPGVGPPKAESNQDPAPRSQGQGPGTGSGDTYRPKRPTTLNLFPQVPRSQDTLNNNSLGKKHSWQDRVSRSSSPLKTGEQTPPHEHICLSDELPPQGSPVPTQDRGTSTDSPCRRSAATQMAPPSGPPATAPGGRGHSHRDRIHYQADVRLEATEEIYLTPVQRPPDPAEPTSTFMPPTESRMSVSSDPDPAAYSVTAGRPHPSISEEDEGFDCLSSPERAEPPGGGWRGSLGEPPPPPRASLSSDTSALSYDSVKYTLVVDEHAQLELVSLRPCFGDYSDESDSATVYDNCASASSPYESAIGEEYEEAPQPRPPTCLSEDSTPDEPDVHFSKKFLNVFMSGRSRSSSAESFGLFSCVINGEEHEQTHRAIFRFVPRHEDELELEVDDPLLVELQAEDYWYEAYNMRTGARGVFPAYYAIEVTKEPEHMAALAKNSDWIDQFRVKFLGSVQVPYHKGNDVLCAAMQKIATTRRLTVHFNPPSSCVLEISVRGVKIGVKADDALEAKGNKCSHFFQLKNISFCGYHPKNNKYFGFITKHPADHRFACHVFVSEDSTKALAESVGRAFQQFYKQFVEYTCPTEDIYLE
Turning to B1, the binding entry in test [2] and in test [3] was “binds” each time.
